Experimental data published in US8283445B2, “Extracellular-signal-regulated-kinase (ERK) heteropolyligand polypeptide” (Intrexon Corporation, priority 2006, dated 2012).

Test system: Cos7 cells
Experiment: Subcellular localization by immunostaining for c-Myc epitope tag (fluorescence microscopy)
Assay type: cell-based

B1: SEQ ID NO:1: ERK heteropolyligand A-S1-B-S2-C-S3-D-S4-E-S5-F of SEQ ID NOS:91, 97, 28, 29, 30, 31, Xaa alanine, with spacers (protein)
chain: MPKKKPTPIQLNPAAKGRKPRDLELPAAAATGPLAPGPFGAGAYSPTAPTYSPTAPKKKGGGGAPRAPGGRRAGAGRRPRAPAKLSFFFPS
modifications: Synthetic polyligand
With B1 the Subcellular localization (fused to ER localization signal and c-Myc tag, Cos7 cells, FIG. 13A) was “endoplasmic reticulum”, the Subcellular localization (fused to nuclear localization signal and c-Myc tag, FIG. 16) was “nucleus” and the Subcellular localization (fused to nuclear-exclusion localization signal and c-Myc tag, FIG. 17) was “cytoplasm”.
